Data source: PubChem BioAssay AID652272 (Drosophila RNAi Screening Center, 2013)

- Test: 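Finding fly genes that regulate Hedgehog signal transduction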 (primary screen)
- System: Drosophila clone 8 (Cl8) cells
- Reagent: long dsRNA against Drosophila genes
- Read-out: 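Firefly light from a Hedgehog-responsive ptc promoter reporter and Renilla reference light, both read on a plate reader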
- Direction: firefly Hh reporter signal: higher = more ptc reporter light; Renilla reference signal: higher = more Renilla control light
- Call rule: 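Hit when the z-score averaged over two replicates is under -2 or over +3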
- Meaning of the calls: active = hit: reporter lowered or raised; inactive = not a hit
In all, the deposit lists about 21,000 reagents; shown is an unselected part of those with a known target gene and a result. Of all reagents, 503 (2.4%) got an active call. 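Raw plate light values, not normalised; calls rest on replicate z-scores that were not deposited; hits include reporter decreases as well as increases.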 Not stated in the record: the amount of reagent, the time to read-out.

target,DRSC id,"firefly Hh reporter signal, replicate 1","firefly Hh reporter signal, replicate 2","firefly Hh reporter signal, replicate 3","Renilla reference signal, replicate 1","Renilla reference signal, replicate 2",outcome
DCTN4-p62,DRSC06101,68917,69453,,2037,2122,inactive
CG3091,DRSC18274,95530,1.91e5,,1280,7220,inactive
CG15125,DRSC06547,1.22e5,65571,,3123,5152,inactive
bel,DRSC16555,1.00e5,1.45e5,,1952,2090,active
CG17343,DRSC02606,1.26e5,53561,,3063,4768,inactive
chn,DRSC06086,1.87e5,83766,,6022,753,inactive
CG31886,DRSC03248,89300,85200,,3357,3462,inactive
CG12920,DRSC06234,63297,51389,,1600,3857,inactive
Capa,DRSC15058,1.33e5,1.03e5,,3280,3088,inactive
CG3216,DRSC04347,65165,39116,,2035,4492,inactive
CG9967,DRSC00742,98178,4.14e5,62955,3782,23741,inactive
meep,DRSC07948,1.47e5,2.21e5,,3836,7872,inactive
CG2258,DRSC18222,75152,79242,,1648,1670,inactive
CG4294,DRSC04460,91920,39909,,3574,1632,inactive
Sobp,DRSC07312,50074,64704,,2770,2941,inactive
bab2,DRSC08150,66310,27851,,2227,2288,inactive
bab2,DRSC08380,42912,31367,,1713,2640,inactive
Obsc,DRSC04301,6.63e5,1.04e5,,4397,4397,inactive
Obsc,DRSC04302,75639,92378,,2931,3543,inactive
Obsc,DRSC04303,92050,29776,,2632,3628,inactive
Obsc,DRSC04430,53616,68486,,1297,4813,inactive

Continued (3 carried over from the part before).
target,DRSC id,"firefly Hh reporter signal, replicate 1","firefly Hh reporter signal, replicate 2","firefly Hh reporter signal, replicate 3","Renilla reference signal, replicate 1","Renilla reference signal, replicate 2",outcome
Obsc,DRSC04302,75639,92378,,2931,3543,inactive
Obsc,DRSC04303,92050,29776,,2632,3628,inactive
Obsc,DRSC04430,53616,68486,,1297,4813,inactive
Hk,DRSC17638,6.30e5,2.79e5,,31104,4201,inactive
Hk,DRSC17639,3.09e5,1.22e5,,21174,3161,inactive
Hk,DRSC18138,62837,42044,,2129,1205,inactive
Hk,DRSC18674,73914,1.51e5,,1408,3808,active
CG33296,DRSC00998,4.76e5,1.82e5,,22087,7638,inactive
CG32241,DRSC08100,6.06e5,1.63e5,1.43e5,5812,4804,inactive
Spag1,DRSC15331,1.03e5,91744,,3653,2568,inactive
TM4SF,DRSC04661,1.20e5,96432,,4140,3712,inactive
CG5323,DRSC06929,1.34e5,64945,,3596,5392,inactive
Fip1,DRSC12147,77154,86669,,3426,4577,inactive
CG17032,DRSC10241,1.34e5,,,2210,4071,inactive
GluProRS,DRSC14095,99008,80473,,4002,3109,inactive
ppk20,DRSC16260,53564,81776,,2164,2512,inactive
ppk14,DRSC03238,1.74e5,56835,,4469,5088,inactive
CG13377,DRSC18622,84571,1.45e5,,1717,6160,inactive
Zcchc7,DRSC11099,46291,31130,,2405,1557,inactive
CG11655,DRSC19413,68889,1.94e5,,2005,7648,inactive
tsh,DRSC03740,86312,61353,,2311,5476,inactive
CG9757,DRSC16557,1.42e5,1.04e5,,4525,2896,inactive
CG14416,DRSC18639,93328,2.19e5,,3429,9168,inactive
CG33169,DRSC11853,1.34e5,1.45e5,,4619,4260,inactive
CG4467,DRSC15585,5.92e5,1.20e5,,27248,4128,inactive
Ttc7,DRSC04836,1.81e5,70834,,6376,2772,inactive
CG10019,DRSC00279,1.36e5,33785,,3094,3254,inactive
CG2816,DRSC00539,1.98e5,65462,,4819,6192,inactive
CG31855,DRSC02968,60281,45136,,1642,3861,inactive
CG12560,DRSC02174,1.05e5,49392,,3093,5168,inactive
CG13171,DRSC06299,1.04e5,72672,,2930,5490,inactive
Ret,DRSC03409,59595,87731,,2819,3429,inactive
Ret,DRSC03410,78835,72481,,1938,5906,inactive
Mics1,DRSC12537,1.00e5,1.70e5,,3236,5068,inactive
UK114,DRSC01973,1.01e5,79219,,2992,6602,inactive
CG8187,DRSC07099,90900,56000,,4167,2469,inactive
CG1494,DRSC20509,89685,2.13e5,,2872,8949,inactive
Ttc1,DRSC15016,1.65e5,1.20e5,,4903,2836,inactive
Mnt,DRSC17894,1.03e5,80562,,2386,2458,inactive
Mnt,DRSC18480,59549,2.15e5,,1842,9365,inactive
